Results as given in PubChem BioAssay AID504444 (National Center for Advancing Translational Sciences (NCATS), 2011).
About 7,500 (2.1%) of roughly 360,000 compounds were called active. Inconclusive means that the source gave no clear call. Such entries were picked first, then a sample of the others. Calls follow the shape of the dose curve; as a rule, active = well fitted inhibition curve with a large enough effect; inconclusive = small, poorly fitted or top-dose-only effect, or effect the other way; inactive = flat fitted curve, though single readings scatter. Potencies beside an inconclusive call are fits to weak or partial responses and may not hold up.

assay: Nrf2 qHTS screen for inhibitors; settings: A549 ARE-Fluc reporter, luciferase luminescence, 18-24 h; activity change, negative = inhibition: at 46 µM (top of the series); also: nearly all actives have a fitted effect of over 60% in size
Procedure, shortened: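 A549 ARE_Fluc cells (5000/well, 5% FBS OPTI-MEM) pre-incubated 2 h, then treated with compounds 18-24 h at 37C/5% CO2 in concentration-response. CellTiter-Fluor viability read first; BugLite luciferase luminescence after 15 min at room temperature gives Nrf2 activity.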
% is scaled to controls: 0 for no effect and ±100 for the full control effect; potency is read from the fitted curve at half-maximal effect.

| SMILES | Potency | activity change, negative = inhibition |
| --- | --- | --- |
| Cc1noc(C(=O)Nc2ccc3c(c2)OCO3)c1Cl | inconclusive: 18.4 µM [activator, single point] |  |
| Cc1cc(NC(=O)c2ccccc2O)nc(C)n1 | inconclusive: 10.3 µM [activator, partial curve] |  |
| CC(=O)c1cc2c(cc1NC(=O)c1ccc(-n3nc(C)cc3C)cc1)OCO2 | inconclusive: 1.46 µM [falling, full curve, poor fit] |  |
| O=C(OCC#CCSc1nnc(-c2cccc3ccccc23)o1)c1cnc[nH]1 | inconclusive: 0.92 µM [falling, partial curve, poor fit] |  |
| O=C(CSc1nnc(-c2ccco2)o1)N1c2ccccc2CCc2ccccc21 | inconclusive: 23.1 µM [falling, single point] |  |
| O=C(N(c1ccccc1)c1ccccc1)N(c1ccccc1)c1ccccc1 | inconclusive: 23.1 µM [falling, single point] |  |
| CCOC(=O)Cc1csc(NC(=O)CSc2nnc(C(C)C)n2C)n1 |  | inactive: 10.7% |
| Cc1ccc(OCCSc2nc(-c3ccccc3C)nc3cc(=O)[nH]n23)cc1Cl | inconclusive: 9.2 µM [activator, partial curve, poor fit] |  |
| Cc1nn(-c2nc(-c3ccccc3)cc(C(F)(F)F)n2)c(C)c1Cl |  | inactive: -27.4% |
| CN(C)C(=O)c1ccc(NS(=O)(=O)c2ccc3c(c2)OCCO3)cc1 | inconclusive: 14.6 µM [falling, partial curve, poor fit] |  |
| COc1ccc(S(=O)(=O)N2CCC(Oc3ccc(-n4cnnn4)cc3)CC2)cc1 | inconclusive: 16.4 µM [falling, single point] |  |
| COc1ccc(NC(=O)CCCCCN2C(=O)[C@@H]3Cc4ccccc4CN3C2=O)cc1Cl | inconclusive: 11.6 µM [falling, partial curve] |  |
| Nc1ccn(C2OC(COC(=O)C34CC5CC(CC(C5)C3)C4)C(O)C2O)c(=O)n1 (stereo not given) | inconclusive: 1.64 µM [falling, full curve] |  |
| O=C(Nc1ccc2c(c1)OCCO2)c1ccc(Cl)cc1 | inconclusive: 1.64 µM [activator, full curve] |  |
| O=C(O)c1ccc(CSc2nc3ccccc3c(=O)n2-c2ccccc2)cc1 | inconclusive: 13 µM [falling, partial curve, poor fit] |  |
| COc1cc(-c2nn3c(-c4cc(-c5ccccc5)n[nH]4)nnc3s2)cc(OC)c1OC | active: 20.6 µM |  |
| COc1cc(/C=C(\C#N)c2nc3ccc(C)cc3[nH]2)ccc1OCc1ccc(C)cc1 | inconclusive: 18.4 µM [falling, single point] |  |
| CCCCCNS(=O)(=O)c1cc2c3c(c1)CCC(=O)N3CCC2 | inconclusive: 8.2 µM [falling, partial curve] |  |
| O=C(NCCCN1CCC(Cc2ccccc2)CC1)C1CC(=O)N(C2CCCCCC2)C1 (stereo not given) | inconclusive: 29.1 µM [activator, single point] |  |
| CCn1c(C)c(C)c2cc(C(=O)NCC(C)c3ccccc3)ccc21 (stereo not given) | inconclusive: 29.1 µM [activator, single point] |  |
| CN(Cc1cccc(F)c1)C(=O)c1cccc(S(=O)(=O)N2CCN(Cc3ccccc3)CC2)c1 | inconclusive: 23.1 µM [falling, single point] |  |
| O=C1CCC(C(=O)N2CCSCC2)CN1Cc1ccc(Cl)cc1 (stereo not given) | inconclusive: 29.1 µM [falling, single point] |  |

| SMILES | Potency | activity change, negative = inhibition |
| --- | --- | --- |
| CCOc1ccc(Nc2nc(-c3cccc(Cl)c3)c3c(n2)-c2ccccc2OC3)cc1 | inconclusive: 4.11 µM [falling, full curve] |  |
| Cc1ccccc1-c1noc(CSc2nc3ccccc3[nH]2)n1 | active: 18.4 µM |  |
| O=c1c2ccccc2nnn1CSc1nnc(-c2cccc(S(=O)(=O)N3CCCCC3)c2)o1 | inconclusive: 29.1 µM [falling, single point] |  |
| COc1ccc(CCCc2nnc(SCC(=O)Nc3cccc(F)c3C)o2)cc1 |  | inactive: 0.384% |
| O=C(COc1ccccc1Cl)NCc1ccncc1 | inconclusive: 8.2 µM [activator, partial curve] |  |
| CCOCCc1nn2c(=O)cc(COC(=O)c3ccccc3OC)nc2s1 | inconclusive: 29.1 µM [activator, single point] |  |
| CCOC(=O)C1CCCN(C(=O)c2ccc3c(c2)sc2nc(-c4cccc(OC)c4)cn23)C1 (stereo not given) | active: 16.4 µM |  |
| CCc1ccccc1NC(=O)NC1CC2CCC(C1)N2Cc1cccs1 (stereo not given) | inconclusive: 1.03 µM [falling, partial curve] |  |
| Cc1cc(=O)n2nc(N(C)CC(=O)NCc3ccccc3C)sc2n1 |  | inactive: 14.9% |
| CCN1CCN(CCNC(=O)CCc2c(C)c3c(C)nn(-c4ccccc4)c3n(C)c2=O)CC1 | inconclusive: 0.58 µM [falling, partial curve, poor fit] |  |
| CCc1ccccc1Nc1nn2c(=O)c3ccc(C(=O)NCCC4=CCCCC4)cc3nc2s1 | inconclusive: 29.1 µM [activator, single point] |  |
| CCCn1c(SCC(=O)Nc2cc(C(=O)O)ccc2C)nc2sc3c(c2c1=O)CCC3 | inconclusive: 0.0046 µM [falling, full curve, poor fit] |  |
| COc1cccc(NC(=O)Cc2nnc(SCC(=O)NC(C)c3ccccc3)n2C)c1 (stereo not given) | inconclusive: 29.1 µM [activator, single point] |  |
| O=C(NCCC1=CCCCC1)NC1CCCCC1 | inconclusive: 16.4 µM [activator, partial curve] |  |
| Cc1cc(C)c(C)c(S(=O)(=O)NCc2ccncc2)c1C | active: 13 µM |  |
| Cc1c(C(=O)Nc2cc(F)cc(F)c2)cnn1-c1ccccc1 | inconclusive: 0.92 µM [activator, partial curve, poor fit] |  |
| O=C(Nc1ccc(F)cc1)Nc1csc2c1CCCC2 | inconclusive: 29.1 µM [falling, single point] |  |
| CCCN1CNc2c(c(=O)[nH]c(=S)n2CCc2cccc(OC)c2)C1 | inconclusive: 0.0366 µM [falling, partial curve, poor fit] |  |
| CCN1C(C(=O)c2ccccc2)=C(OC(=O)COc2ccc(C)cc2)c2ccccc2S1(=O)=O | active: 23.1 µM |  |
| CCn1c(SCC(=O)Nc2cccc(C)c2)nc2ccccc2c1=O | inconclusive: 20.6 µM [falling, partial curve, poor fit] |  |
| CC(=O)c1c(N2CCCC2)[nH]c(-c2ccccc2)nc1=S | inconclusive: 32.6 µM [falling, single point] |  |
| COc1ccc(C(=O)n2nc(-c3ccc(OC)cc3)nc2N)cc1 | inconclusive: 20.6 µM [falling, single point] |  |

An excerpt from the list above, for reference:

| SMILES | Potency | activity change, negative = inhibition |
| --- | --- | --- |
| CCn1c(C)c(C)c2cc(C(=O)NCC(C)c3ccccc3)ccc21 (stereo not given) | inconclusive: 29.1 µM [activator, single point] |  |
| CN(Cc1cccc(F)c1)C(=O)c1cccc(S(=O)(=O)N2CCN(Cc3ccccc3)CC2)c1 | inconclusive: 23.1 µM [falling, single point] |  |
| O=C1CCC(C(=O)N2CCSCC2)CN1Cc1ccc(Cl)cc1 (stereo not given) | inconclusive: 29.1 µM [falling, single point] |  |
| CCOc1ccc(Nc2nc(-c3cccc(Cl)c3)c3c(n2)-c2ccccc2OC3)cc1 | inconclusive: 4.11 µM [falling, full curve] |  |

Additional records follow.

| SMILES | Potency | activity change, negative = inhibition |
| --- | --- | --- |
| O=C(CN1CCN(S(=O)(=O)c2ccccc2F)CC1)Nc1ccnn1C1CCCC1 | inconclusive: 23.1 µM [falling, partial curve, poor fit] |  |
| COc1ccc(S(=O)(=O)N2CCOCC2)cc1NC(=O)CSc1nnc(NC2CC2)s1 |  | inactive: -0.078% |
| Cc1nc2ccc(C(=O)c3ccccc3)cc2[nH]1 | inconclusive: 9.2 µM [activator, partial curve] |  |
| COc1ccc2oc(C(=O)OCC(=O)NCc3ccc(OC)c(OC)c3)c(C)c2c1 | inconclusive: 10.3 µM [falling, partial curve] |  |
| Cc1cnc(C(=O)Nc2nnc(C3CC3)s2)cn1 | inconclusive: 16.4 µM [falling, single point] |  |
| COc1ccc(CNC(=O)NC2CCCCC2)cc1 | inconclusive: 0.651 µM [activator, full curve] |  |
| Cc1ccc(C(=O)NC(=S)/C=C2\N(C)c3ccccc3C2(C)C)cc1 | active: 18.4 µM |  |
| Fc1nc(F)c(F)c(NCCCNc2c(F)c(F)nc(F)c2F)c1F | inconclusive: 29.1 µM [falling, single point] |  |
| O=C(NC1=C(NC2CCS(=O)(=O)C2)C(=O)c2ccccc2C1=O)c1ccccc1 (stereo not given) |  | inactive: 8.84% |
| O=C1Cc2cc(S(=O)(=O)N3CCN(c4cccc(Cl)c4)CC3)ccc2N1 | inconclusive: 4.11 µM [falling, partial curve, poor fit] |  |
| COc1ccc2nc3oc(C(=O)N4CCC(C(N)=O)CC4)cc3cc2c1 |  | inactive: 27.4% |
| CC1Cc2ccccc2N1C(=O)CSc1nnc2c(n1)[nH]c1ccc(F)cc12 (stereo not given) | inconclusive: 0.0164 µM [falling, full curve, poor fit] |  |
| O=S(=O)(NCc1cccnc1)c1ccccc1 | inconclusive: 6.51 µM [activator, single point] |  |
| CCn1c(C(=O)NCCc2ccc(S(N)(=O)=O)cc2)cc2sc(Cl)cc21 | inconclusive: 0.92 µM [falling, full curve, poor fit] |  |
| O=C(Nc1ncccc1O)c1ccc(Oc2ccccc2)cc1 | inconclusive: 5.17 µM [activator, full curve] |  |
| CC(c1nc2scc(-c3ccccc3)c2c(=O)[nH]1)N1CCN(CC(=O)NC2CC2)CC1 (stereo not given) |  | inactive: 1.02% |
| CC(=O)N1CCCC1c1nc2ccccc2n1Cc1ccccc1Cl (stereo not given) | inconclusive: 16.4 µM [falling, single point] |  |
| Cc1cc(NC(=O)c2sc3ccccc3c2O)no1 | inconclusive: 3.26 µM [activator, full curve] |  |
| Nc1cc(N)nc(SCC(=O)Nc2ccc(Br)cc2Cl)n1 | inconclusive: 10.3 µM [activator, partial curve, poor fit] |  |
| C=CC[C@@H](CC(=O)N(CCO)Cc1ccccc1)C(=O)N[C@H](COC(=O)[C@@H](CC=C)Cc1ccc(F)cc1)C(C)(C)C | inconclusive: 29.1 µM [falling, single point] |  |
| COc1ccc(-c2ccc3c(c2)S(=O)(=O)c2cccc(C(=O)NCc4ccccc4Cl)c2C3=O)cc1OC | inconclusive: 29.1 µM [falling, single point] |  |
